Hit rate of the full screen: of about 1,200 compounds, about 15 (1%) were called active. Another 7% or so got no clear call; they are omitted. Calls come from the whole dose curve; as a rule, active = well fitted activation curve with a large enough effect; inconclusive = small, poorly fitted or top-dose-only effect; inactive = flat fitted curve, though single readings scatter. The list shows a part of the results.
These molecules were tested against Beta-2 adrenergic receptor (Homo sapiens) (UniProt P07550) (assay: qHTS assay of beta-arrestin-biased ligands of beta2-adrenergic receptor: Hit Validation). Settings: cell-based beta-arrestin recruitment to beta2AR; Potency: activation; series mostly up to 46.1 µM; activation: at the top concentration.
Summary of the method: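 Tango beta-arrestin recruitment assay in cells at 1500 cells/well in 1% FBS medium, 18 h compound exposure at 37 °C. Luciferase luminescence read 15 min after substrate addition; %activity curves classified by curve class.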
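Note: plate controls were DMSO for no effect and maximal isoproterenol or metaproterenol response for full effect.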

activation, inactive:
CS(=O)(=O)Nc1ccccc1C(=O)NCCSCc1ccccc1 -0.858%
C/C(=N\NC(=O)c1c[nH]c2ccccc12)c1ccc(C)s1 -10.2%
O=C(Oc1c(-c2ccccc2)c(=O)n2c3c(cccc13)CC2)c1ccccc1 -0.833%
CCC(C)NC(=O)C1CCN(S(=O)(=O)N2CCC3(CC2)OCCO3)CC1 (stereo unspecified) -5.35%
NC(=S)N/N=C/c1ccccc1OC(=O)/C=C/c1ccccc1 -0.571%
Cc1ccc(CNc2ccc(O)cc2)cc1 -4.03%
O=c1[nH]nc(CNc2ccc(O)cc2)c2ccccc12 -3.03%
Cc1ccc(C2=NOC(C)(c3nnc(-c4ccc(F)cc4)o3)C2)cc1 (stereo unspecified) -4.53%
CN(C)CCCN(C(=O)c1ccc(S(=O)(=O)N2CCc3ccccc3C2)cc1)c1nc2ccc(F)cc2s1 -4.35%
C=CCNC(=S)N/N=C/c1cccc([N+](=O)[O-])c1 -2.48%
COc1cccc([C@@H]2Oc3ccc(Br)cc3C(=O)[C@H]2OC(=O)NC2CCCC2)c1 1.55%
Cc1cc(C)c2sc(N(CCCN(C)C)C(=O)c3ccc(S(=O)(=O)N4CCc5ccccc5C4)cc3)nc2c1 -0.858%
O=C(NCc1cccc(Cl)c1)c1ccc(S(=O)(=O)Nc2cccc(C(F)(F)F)c2)cc1 -2.28%
COc1cccc(C(=O)N/N=C/C(Br)=C/c2ccccc2)c1 -3.75%
CCOC(=O)CCCc1ccc(/C(C)=N/NC(N)=S)cc1 -1.83%
CN=C(c1ccc(C)cc1)n1c(=S)nc(-c2ccc(C)cc2)n(C)c1=S -2.89%
CN(C)/C=C/C(=O)c1ccc(F)cc1 -2.41%
CC[C@]1(C(=O)OC)[C@H]2C(=O)N(Cc3ccccc3)C(=O)[C@H]2[C@H]2CN(C)C(=NCc3ccccc3)N21 -6.13%
CCN1C(=NCCc2cccnc2)N[C@@H](c2ccccc2)C(C(=O)OC)=C1C -2.42%
O=C(N/N=C\C=C\c1ccco1)C1COc2ccccc2O1 (stereo unspecified) -2.32%
O=c1[nH]c2c(cnn2-c2ccc(Cl)cc2)c(=O)n1-c1cccc(Cl)c1 -4.33%
N#Cc1cccnc1N1CCN(C(=O)c2cccc3c2C(=O)c2ccc(-c4ccc(Cl)c(C(F)(F)F)c4)cc2S3(=O)=O)CC1 -2.09%
NC(=S)NN=C(c1ccccc1)c1ccccc1 -1.39%
CCOC(=O)C1=CC[C@@H](c2cc3ccc(OC)cc3n2C)N(S(=O)(=O)c2ccc(C)cc2)[C@H]1C(=O)OCC -2.16%
Cc1cc(C)c2c(NC(=S)NC(=O)c3ccccc3)nn(C)c2n1 -1.02%
Cc1noc(/C=C/c2ccco2)c1S(=O)(=O)N1CCC(C(=O)N2CCc3ccccc3C2)CC1 -3.07%
CN(C)c1nc(=NCc2ccco2)ss1 -4.96%
CCCN=C1N(CC)C[C@@H]2[C@@H]3C(=O)N(C)C(=O)[C@@H]3[C@](CC)(C(=O)OC)N12 -5.3%
O=C(NC(=S)Nc1cccc2c(O)cccc12)c1cccc(Br)c1 -4.08%
CCOC(=O)NC(=S)Nc1ccc(C(C)(C)C)cc1 -2.43%
C[C@H](NC(=O)c1ccccc1)C(=O)Nc1nc(-c2ccccn2)cs1 -2.75%
CC(=O)Nc1ccc(C2=NN(c3ccccc3)C(c3ccccc3)C2)cc1 (stereo unspecified) -1.63%
Cc1ccc(N2CN=C(c3ccccc3)NC2=S)cc1 -3.96%
COc1ccc(NC(=O)CC2C(=O)N(c3ccc(OC)cc3)C(=S)N2NC(=O)c2cccc(F)c2)cc1 (stereo unspecified) 3.31%
S=c1[nH]cnc2sc(-c3ccccc3)cc12 -1.11%
O=C(Oc1c(CN2CCOCC2)cc(Cl)c2cccnc12)c1ccccc1F 5.07%
NC(=S)N/N=C/c1ccc(-c2ccc([N+](=O)[O-])cc2)o1 -2.56%
COc1cc(NC(=S)NC(=O)CC(C)C)ccc1NC(=O)c1cc2ccccc2o1 -1.71%
CC1CCc2c(C(=O)OCC(=O)Nc3cccc(S(=O)(=O)N4CCCCCC4)c3)csc2C1 (stereo unspecified) -2.59%
C/C(=N\Nc1nc(C)cc(-c2ccccc2)n1)c1ccc(C)o1 0.731%
O=C(O)/C(=C\c1ccco1)NC(=O)c1ccccc1 -1.83%
COc1ccc(C)cc1-n1c(SCC(=O)NCC2CCCO2)nc2c([nH]c3ccccc32)c1=O (stereo unspecified) 4.06%
Oc1ccc(Cl)cc1/C=C/c1ccc2cccc(O)c2n1 0.904%
Cc1cccc2c1N(C(=O)c1ccco1)C(C)(C)c1ssc(=S)c1-2 -3.27%
COc1c(O)cc(O)c2c(=O)cc(-c3ccccc3)oc12 -0.768%
CCOc1cc(/C=N/NC(N)=S)cc(Br)c1OCc1ccccc1C -2.96%
COCCNC(=S)NN=C1CCC(c2ccccc2)CC1 (stereo unspecified) -3.79%
COc1ccc(C(=O)OCC(=O)c2c(N)n(C)c(=O)n(C)c2=O)cc1OC -2.72%
CN(C)C(=S)Nc1nc2ccccc2s1 -3.48%
O=C(c1ccccc1)[C@@H]1[C@@H]2C(=O)N(c3ccc(F)cc3)C(=O)[C@@H]2C2CCCN21 (stereo partly specified) -4.83%
O=C(NC(=S)NN1CCCCC1c1cccnc1)c1ccc(Cl)cc1Cl (stereo unspecified) -1.87%
Cc1cccc(NC(=S)NC(=O)C2CC2)c1 -4.23%
CCN(Cc1cc(=O)oc2cc(C)ccc12)c1ccccc1 -2.2%
O=C(CSc1cccc2cccnc12)N1CCCC1 -1.64%
CCOC(=O)C(Sc1cc(-c2ccccc2)nc2ncnn12)C(C)=O (stereo unspecified) -1.39%
CS(=O)(=O)Nc1ccc(-c2cn3cccnc3n2)cc1 -3.46%
COc1cccc(Oc2cnc(N)nc2-c2ccc(OC)cc2O)c1 -3.32%
Cc1cccc(NNC(=S)Nc2c(C)cccc2C)c1 -0.528%
CCc1ccc(NC(=O)Cc2ccc(-n3cccc3)cc2)cc1 -2.72%
O=C(CC(=O)Nc1cccc(F)c1)Nc1cccc(F)c1 -2.57%
CCNC(=S)N/N=C(\C)c1cccc(C(F)(F)F)c1 -3.78%
COc1ccc(C(=O)C2CCCN(Cc3cnc(N4CCCC4)s3)C2)cc1OC (stereo unspecified) -2.07%
CCOc1ccc2nc(NC3=NC(c4ccc(OC)cc4)CC(=O)N3)nc(C)c2c1 (stereo unspecified) -1.46%
S=C(Nc1ccccc1)Nc1nc2ccccc2n1CCOc1ccc(Br)cc1 1.19%
Cc1cccc(NC(=S)NC2CCCC2)n1 -2.16%
Cc1ccc2c(c1)NC(=O)[C@@]1(C)[C@@H](c3ccccc3)[C@H]3COc4ccc(Cl)cc4[C@@H]3N1C2=O 4.33%
Cc1ccc(Cn2c(/C=C/c3ccco3)nc3ccccc32)cc1 -2.82%
C#CCOCCOCCOCCNc1nc(N2CCN(C(=O)CCCCCCCCCCNC(=O)Cn3cc(C[C@@H](C)O)nn3)CC2)nc(N2CCN(C(=O)CCCCCCCCCCNC(=O)[C@@H]([C@H](C)O)n3cc(C)nn3)CC2)n1 -0.683%
Cc1nn(-c2ccccc2)c(Cl)c1/C=N/NC(=O)CNC(=O)c1ccccc1Cl -0.0024%
Cc1ccc(CN2CCSCC2)c(C)c1 -2.68%
COCCCNC(=O)CCC(=O)Nc1ccc2nc(N3CCOCC3)cc(C)c2c1 5.18%
Cc1ccc(C(=O)N=c2sccn2C)cc1S(=O)(=O)N1CCOCC1 -8.33%
COc1cc(/C=N/Nc2nc(C)cc(C)n2)cc(OC)c1OC -2.25%
COCCNC(=S)N/N=C(\C)c1ccc(OC(F)F)cc1 -5.08%
Cc1ccc(-c2c3c(=O)n(C)c(=O)n(C)c3cn2-n2cnnc2)cc1 5.01%
C/C(CS(=O)(=O)c1ccc(Cl)c(Cl)c1)=N/NC(N)=S -1.93%

2 entries picked at random from those above, as already listed:
activation, inactive:
COc1ccc(NC(=O)CC2C(=O)N(c3ccc(OC)cc3)C(=S)N2NC(=O)c2cccc(F)c2)cc1 (stereo unspecified) 3.31%
Cc1cccc(NC(=S)NC(=O)C2CC2)c1 -4.23%

From PubChem BioAssay AID588463 (National Center for Advancing Translational Sciences (NCATS), 2011)
